Laboratory results taken from PubChem BioAssay AID2685 (National Center for Advancing Translational Sciences (NCATS), 2010).
The other results are listed elsewhere or left out. The main result of the screen is listed elsewhere. These columns were measured beside it and carry no call. The list favours compounds with an active or inconclusive main result. The note in brackets gives the kind of curve behind each potency; many fits are weak.

Assay: qHTS Assay for Lipid Storage Modulators in Drosophila S3 Cells;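 for cell number change: cells counted by Cell Tracker Red CMTPX staining in the red channel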
Conditions: BODIPY lipid droplet fluorescence, 18-24 h; for cell number change: measured here: cell count max response, cells fed with added oleic acid
Procedure, shortened: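 Drosophila S3 cells got compounds at several concentrations plus oleic acid (400 uM solution). Laser-scanning cytometry with 488 nm excitation read lipid droplets at 500-530 nm and cells at 575-640 nm. Percent activity was relative to 20 uM Triacsin C.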

[1] = measured here: cell number channel AC50, cells fed with added oleic acid
[2] = measured here: lipid fluorescence (Fed channel) AC50, cells fed with added oleic acid

Work on `CC(C)N1C(=O)CSC1c1ccc(Br)cc1` (centres undefined) yielded a cell number change of -7.09%.
With `C=CCn1c(CCNC(=O)c2cccs2)nnc1SCC(=O)c1ccc(Cl)cc1` the cell number change was -34.7%, the AC50 [1] was 0.146 µM [falling, full curve, poor fit] and the AC50 [2] was 2.06 µM [rising, partial curve].
With `CC(C)c1ccc(NC(=O)/C(C#N)=C/c2ccncc2)cc1` the cell number change was -11.9% and the AC50 [2] was 0.58 µM [rising, single point].
In the case of `Cc1ccc(NC(=O)C(=O)NCc2ccncc2)cc1`, the cell number change was 28.8%, the AC50 [1] was 2.06 µM [rising, full curve, poor fit] and the AC50 [2] was 0.731 µM [falling, single point].
With `CC1CC(C)(C)CC(=O)C1C(=O)c1ccccc1` (centres undefined) the cell number change was 21.8% and the AC50 [2] was 29.1 µM [rising, single point].
With `CCOc1ccc(NC(=O)C(=O)NCc2ccncc2)cc1` the cell number change was 8% and the AC50 [2] was 0.146 µM [falling, full curve, poor fit].
Compound `CCN(CC)CCN1C(=O)C(=O)/C(=C(/O)c2ccc(S(=O)(=O)N3CCOCC3)cc2)C1c1ccc(Cl)cc1` (centres undefined) has a cell number change of -5.04%.
In the case of `Cc1ccc(Nc2cc(C)nc3c(C)cccc23)cc1`, the cell number change was -21.5% and the AC50 [2] was 3.66 µM [falling, full curve].
In the case of `CCCn1c(SCC(=O)Nc2ccc(OC)cc2)nnc1-c1ccncc1`, the AC50 [1] was 1.3 µM [rising, partial curve].
Compound `COCC(=O)N(Cc1cc2ccc(C)cc2[nH]c1=O)c1cccc(C)c1` has a cell number change of 3.87%.
In the case of `O=C1c2cccc([N+](=O)[O-])c2C(=O)N1CCO`, the cell number change was -64.3%, the AC50 [1] was 29.1 µM [falling, single point] and the AC50 [2] was 29.1 µM [falling, single point].
`CCC1Sc2ccc(S(=O)(=O)CCC(=O)NCc3cccs3)cc2NC1=O` (centres undefined) gave a cell number change of -14.8%.
`CC(=O)NC(=S)Nc1ccc(NC(=O)COc2ccc(Cl)cc2Cl)cc1` showed a cell number change of -40.7%.
In the case of `CN1CCN(S(=O)(=O)c2cccc(C(=O)Nc3cc(C(N)=O)cc(C(N)=O)c3)c2)CC1`, the cell number change was 5.83% and the AC50 [2] was 0.116 µM [rising, single point].
In the case of `CN(C)CCN(C(=O)c1ccc(S(=O)(=O)N2CCCC2)cc1)c1nc2ccc(Br)cc2s1`, the cell number change was 13.2% and the AC50 [2] was 4.61 µM [rising, full curve, poor fit].
For `CCCCOC(=O)c1ccc(N/C(=N\S(=O)(=O)c2ccccc2)c2ccccc2)cc1`, the cell number change was 6.84% and the AC50 [2] was 0.184 µM [rising, full curve].
In the case of `O=[N+]([O-])c1ccccc1SNc1ccc(Br)cn1`, the cell number change was 16.4% and the AC50 [2] was 4.61 µM [rising, single point].
In the case of `COc1ccccc1NC(=S)NNC(=O)c1ccncc1`, the cell number change was 13.3% and the AC50 [1] was 0.259 µM [rising, full curve, poor fit].
For `CCCCn1c(=O)[nH]c(=O)c2c1nc(-c1ccc(C#N)cc1)n2C1CCCC1`, the cell number change was -21.4% and the AC50 [2] was 0.00731 µM [falling, full curve, poor fit].
In the case of `O=C1c2ccc3c4c(ccc(c24)C(=O)N1CCCCO)C(=O)N(CCCCO)C3=O`, the cell number change was -53.9%, the AC50 [1] was 8.2 µM [falling, partial curve] and the AC50 [2] was 7.31 µM [falling, partial curve].
With `O=C(NCC1CCCO1)c1cc2ccccc2o1` (centres undefined) the cell number change was 13.9%.
In the case of `Cn1c(SCC(=O)NC2CCCc3ccccc32)nnc1C1CC1` (centres undefined), the cell number change was -50% and the AC50 [1] was 16.4 µM [falling, single point].
For `Cc1ccc(C2=CC(=O)CC(C)(C)C2)cc1`, the cell number change was 14.7%.
For `O=C(NCC(=O)N1CCN(Cc2ccccc2)CC1)c1ccc(Br)cc1`, the cell number change was -1.05% and the AC50 [2] was 0.00651 µM [rising, full curve, poor fit].
For `O=C(Cc1c(F)cccc1Cl)Nc1nc2ccccc2s1`, the cell number change was -49.9%.
For `COc1cccc(N2CCN(C(=O)CC(NC(=O)c3ccccc3)c3ccccc3)CC2)c1` (centres undefined), the cell number change was 9.66% and the AC50 [2] was 6.51 µM [rising, single point].
In the case of `COC(=O)c1nc2ccc(N3CCOCC3)cc2c(C)c1C(=O)OC`, the cell number change was 12.6%, the AC50 [1] was 0.082 µM [rising, partial curve] and the AC50 [2] was 0.164 µM [rising, full curve, poor fit].
With `NC(=O)c1nn(-c2ccc(Cl)cc2Cl)c(=O)cc1O` the cell number change was -9.62% and the AC50 [2] was 2.91 µM [falling, single point].
For `Cc1ccc(-c2c[n+](=O)c3c(n2[O-])CCC3)cc1`, the cell number change was -13.9% and the AC50 [2] was 0.0291 µM [falling, full curve, poor fit].
For `CC(C)Cc1cc(C(=O)N2CCCC(CO)(Cc3ccc(F)cc3F)C2)n[nH]1` (centres undefined), the cell number change was -9.06% and the AC50 [2] was 8.2 µM [rising, partial curve].
In the case of `O=C(CNC(=O)c1ccccc1F)OCCOc1cccc(Cl)c1`, the cell number change was -29.3% and the AC50 [1] was 1.46 µM [falling, full curve, poor fit].
`COc1cccc(CN(C)C(=O)c2cccc(S(=O)(=O)N3CCN(c4ccc(F)cc4)CC3)c2)c1OC` gave a cell number change of 71.1%.
`CCN(CC(=O)Nc1ccccc1C(F)(F)F)C(=O)c1cccc(S(=O)(=O)N2CCN(C)CC2)c1` showed a cell number change of -10.9%.
For `CC1CCCCN1C(=O)CSc1nnc2c(n1)[nH]c1ccccc12` (centres undefined), the AC50 [2] was 5.17 µM [falling, single point].
With `COc1ccc(S(=O)(=O)N2CCCOC2CNC(=O)C(=O)NCc2ccco2)cc1C` (centres undefined) the cell number change was -4.25%.
`CC(C)CN(C(=O)CCCc1nc2ccccc2c(=O)[nH]1)c1c(N)n(Cc2ccccc2)c(=O)[nH]c1=O` gave a cell number change of 2.5%.
For `COc1ccc(C(=O)NCC(=O)OCc2nc(N)nc(Nc3ccccc3C)n2)cc1`, the cell number change was 4.39% and the AC50 [2] was 6.51 µM [rising, partial curve, poor fit].
For `CC1=C(C(=O)Nc2ccccc2C)C2(CCCCC2)C(C(N)=O)C(=S)N1` (centres undefined), the cell number change was -2.89% and the AC50 [1] was 0.461 µM [rising, partial curve, poor fit].
With `CC(=O)NNc1nc(-c2ccc(NC(C)=O)cc2)cs1` the cell number change was 9.79% and the AC50 [2] was 20.6 µM [rising, single point].
In the case of `Cc1cc(C)n(-c2ccc(C(=O)N3CCc4ccccc43)cc2)n1`, the AC50 [1] was 4.11 µM [rising, partial curve, poor fit] and the AC50 [2] was 2.59 µM [rising, single point].
With `Cc1ccc(C(C)C)cc1OCC(=O)Nc1ccccc1N1CCCC1` the cell number change was 35.4% and the AC50 [1] was 16.4 µM [rising, partial curve].
